Experimental data taken from the supplement of paper PMC6411743.
± gives the standard deviation of the averaged measurements. This is a selection; strong and weak results do not stand in their true shares.

Protein sequences, listed by entry. Tags and fused reporters are not part of them. Lines headed by an entry give the natural chain unless they say otherwise; changes in a name come on top.
UniProt Q9BQG0: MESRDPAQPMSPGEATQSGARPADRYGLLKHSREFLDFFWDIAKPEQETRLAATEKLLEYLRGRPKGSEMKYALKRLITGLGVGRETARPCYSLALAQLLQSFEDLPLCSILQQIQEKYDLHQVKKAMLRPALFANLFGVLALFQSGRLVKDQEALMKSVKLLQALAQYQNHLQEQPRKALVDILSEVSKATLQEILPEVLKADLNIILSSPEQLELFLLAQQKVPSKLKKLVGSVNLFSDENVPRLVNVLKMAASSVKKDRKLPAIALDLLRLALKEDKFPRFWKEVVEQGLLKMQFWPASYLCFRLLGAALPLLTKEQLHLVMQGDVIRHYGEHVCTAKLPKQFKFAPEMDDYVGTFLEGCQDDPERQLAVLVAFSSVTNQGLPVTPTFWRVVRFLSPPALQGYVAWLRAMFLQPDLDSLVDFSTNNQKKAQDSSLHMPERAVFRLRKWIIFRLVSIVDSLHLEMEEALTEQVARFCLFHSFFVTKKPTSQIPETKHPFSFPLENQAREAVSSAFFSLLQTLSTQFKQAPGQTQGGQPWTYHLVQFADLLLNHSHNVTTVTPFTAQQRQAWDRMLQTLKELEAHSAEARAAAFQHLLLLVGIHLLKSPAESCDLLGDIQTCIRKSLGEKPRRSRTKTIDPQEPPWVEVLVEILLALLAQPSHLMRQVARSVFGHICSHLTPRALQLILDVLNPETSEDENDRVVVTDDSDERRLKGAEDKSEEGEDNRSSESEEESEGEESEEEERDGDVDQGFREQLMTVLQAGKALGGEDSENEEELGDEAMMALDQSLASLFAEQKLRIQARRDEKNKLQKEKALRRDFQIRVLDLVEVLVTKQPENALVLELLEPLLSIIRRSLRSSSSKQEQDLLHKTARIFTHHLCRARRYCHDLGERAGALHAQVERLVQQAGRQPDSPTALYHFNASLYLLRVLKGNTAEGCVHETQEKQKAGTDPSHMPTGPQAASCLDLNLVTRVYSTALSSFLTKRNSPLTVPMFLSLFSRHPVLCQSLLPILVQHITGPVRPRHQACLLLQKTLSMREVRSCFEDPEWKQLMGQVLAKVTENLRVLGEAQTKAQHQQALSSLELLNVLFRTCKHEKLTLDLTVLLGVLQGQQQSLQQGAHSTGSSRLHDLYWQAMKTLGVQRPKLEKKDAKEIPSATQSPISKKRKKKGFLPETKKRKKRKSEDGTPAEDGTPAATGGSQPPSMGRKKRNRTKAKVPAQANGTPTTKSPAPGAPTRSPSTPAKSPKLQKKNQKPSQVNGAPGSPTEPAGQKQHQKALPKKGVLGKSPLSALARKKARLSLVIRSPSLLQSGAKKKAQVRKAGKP
UniProt Q96T76: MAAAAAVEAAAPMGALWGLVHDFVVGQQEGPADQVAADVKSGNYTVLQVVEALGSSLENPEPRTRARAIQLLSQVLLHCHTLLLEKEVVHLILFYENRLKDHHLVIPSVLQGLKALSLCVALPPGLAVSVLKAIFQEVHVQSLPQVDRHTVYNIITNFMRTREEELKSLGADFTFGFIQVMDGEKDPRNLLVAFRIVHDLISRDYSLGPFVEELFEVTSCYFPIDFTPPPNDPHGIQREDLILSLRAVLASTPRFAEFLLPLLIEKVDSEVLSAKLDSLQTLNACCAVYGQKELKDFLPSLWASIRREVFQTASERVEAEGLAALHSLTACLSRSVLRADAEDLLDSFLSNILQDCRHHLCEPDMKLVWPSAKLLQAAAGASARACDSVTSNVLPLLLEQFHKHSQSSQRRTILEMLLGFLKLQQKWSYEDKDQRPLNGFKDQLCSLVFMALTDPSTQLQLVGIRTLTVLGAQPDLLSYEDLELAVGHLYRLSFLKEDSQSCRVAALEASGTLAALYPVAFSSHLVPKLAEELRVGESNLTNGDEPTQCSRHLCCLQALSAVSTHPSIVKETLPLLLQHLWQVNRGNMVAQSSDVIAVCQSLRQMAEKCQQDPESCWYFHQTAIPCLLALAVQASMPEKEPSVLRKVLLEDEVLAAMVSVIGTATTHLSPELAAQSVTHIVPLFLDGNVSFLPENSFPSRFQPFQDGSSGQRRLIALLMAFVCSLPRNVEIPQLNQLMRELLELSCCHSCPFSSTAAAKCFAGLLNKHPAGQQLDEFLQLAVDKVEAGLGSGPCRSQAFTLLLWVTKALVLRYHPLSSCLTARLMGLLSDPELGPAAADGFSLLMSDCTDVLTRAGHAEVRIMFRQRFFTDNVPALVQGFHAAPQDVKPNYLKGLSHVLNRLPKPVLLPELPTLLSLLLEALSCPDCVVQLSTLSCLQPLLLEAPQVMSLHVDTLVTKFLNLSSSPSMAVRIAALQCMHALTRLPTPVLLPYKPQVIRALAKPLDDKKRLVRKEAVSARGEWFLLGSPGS
UniProt Q9BRA0: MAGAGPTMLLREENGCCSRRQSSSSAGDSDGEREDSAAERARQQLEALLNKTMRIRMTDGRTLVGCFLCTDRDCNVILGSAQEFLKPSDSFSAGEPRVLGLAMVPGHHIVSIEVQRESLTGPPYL
UniProt Q9BUI4: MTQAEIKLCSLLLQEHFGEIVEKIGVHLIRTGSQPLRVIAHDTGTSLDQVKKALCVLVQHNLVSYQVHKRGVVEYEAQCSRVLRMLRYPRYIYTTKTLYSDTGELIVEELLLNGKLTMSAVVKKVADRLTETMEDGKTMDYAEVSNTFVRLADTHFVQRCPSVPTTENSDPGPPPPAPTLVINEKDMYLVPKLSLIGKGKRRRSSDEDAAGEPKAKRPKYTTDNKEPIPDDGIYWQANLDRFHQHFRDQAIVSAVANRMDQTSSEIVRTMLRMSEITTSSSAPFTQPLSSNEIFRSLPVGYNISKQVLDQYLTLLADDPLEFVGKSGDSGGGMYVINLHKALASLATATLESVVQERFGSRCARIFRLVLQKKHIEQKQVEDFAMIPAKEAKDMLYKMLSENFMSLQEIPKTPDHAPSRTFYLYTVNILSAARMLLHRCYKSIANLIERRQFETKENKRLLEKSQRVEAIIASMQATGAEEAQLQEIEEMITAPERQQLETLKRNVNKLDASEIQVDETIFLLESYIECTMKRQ
UniProt Q9BQP7: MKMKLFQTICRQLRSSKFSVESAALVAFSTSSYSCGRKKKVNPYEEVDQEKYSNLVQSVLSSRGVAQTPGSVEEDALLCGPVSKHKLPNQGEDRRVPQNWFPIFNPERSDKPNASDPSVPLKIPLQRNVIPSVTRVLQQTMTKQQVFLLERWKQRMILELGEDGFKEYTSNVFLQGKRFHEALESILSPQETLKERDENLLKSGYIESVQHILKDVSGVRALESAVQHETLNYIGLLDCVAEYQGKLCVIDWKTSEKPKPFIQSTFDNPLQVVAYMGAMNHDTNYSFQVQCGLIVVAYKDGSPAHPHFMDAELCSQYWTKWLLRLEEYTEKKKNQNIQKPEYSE
UniProt Q9BWT6: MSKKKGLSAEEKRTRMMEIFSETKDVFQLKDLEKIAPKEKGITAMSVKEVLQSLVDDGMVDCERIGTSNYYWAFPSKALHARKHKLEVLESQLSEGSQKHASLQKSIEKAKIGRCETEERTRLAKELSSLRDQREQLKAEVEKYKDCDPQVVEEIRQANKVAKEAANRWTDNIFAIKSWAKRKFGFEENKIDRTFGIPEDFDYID
UniProt Q99728: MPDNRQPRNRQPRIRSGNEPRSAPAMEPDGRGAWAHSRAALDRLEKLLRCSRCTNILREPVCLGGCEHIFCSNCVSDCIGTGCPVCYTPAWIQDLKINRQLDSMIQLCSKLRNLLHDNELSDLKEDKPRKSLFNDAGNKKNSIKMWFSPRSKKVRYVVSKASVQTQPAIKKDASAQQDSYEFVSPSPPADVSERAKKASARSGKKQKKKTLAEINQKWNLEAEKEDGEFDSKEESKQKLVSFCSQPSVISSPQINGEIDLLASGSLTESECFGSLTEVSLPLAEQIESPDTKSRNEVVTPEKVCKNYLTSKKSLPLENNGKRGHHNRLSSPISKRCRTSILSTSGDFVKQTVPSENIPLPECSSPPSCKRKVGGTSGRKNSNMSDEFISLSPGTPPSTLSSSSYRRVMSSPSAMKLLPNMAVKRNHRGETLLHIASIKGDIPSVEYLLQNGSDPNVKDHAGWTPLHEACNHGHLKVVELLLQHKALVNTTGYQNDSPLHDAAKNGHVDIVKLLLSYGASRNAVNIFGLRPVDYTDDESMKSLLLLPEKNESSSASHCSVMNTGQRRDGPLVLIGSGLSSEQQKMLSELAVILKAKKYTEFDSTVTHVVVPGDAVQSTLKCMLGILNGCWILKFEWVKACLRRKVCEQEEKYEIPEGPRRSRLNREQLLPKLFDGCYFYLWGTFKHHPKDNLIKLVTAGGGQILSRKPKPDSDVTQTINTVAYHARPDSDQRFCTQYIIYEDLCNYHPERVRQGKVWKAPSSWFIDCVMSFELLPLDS
UniProt Q9BYG5: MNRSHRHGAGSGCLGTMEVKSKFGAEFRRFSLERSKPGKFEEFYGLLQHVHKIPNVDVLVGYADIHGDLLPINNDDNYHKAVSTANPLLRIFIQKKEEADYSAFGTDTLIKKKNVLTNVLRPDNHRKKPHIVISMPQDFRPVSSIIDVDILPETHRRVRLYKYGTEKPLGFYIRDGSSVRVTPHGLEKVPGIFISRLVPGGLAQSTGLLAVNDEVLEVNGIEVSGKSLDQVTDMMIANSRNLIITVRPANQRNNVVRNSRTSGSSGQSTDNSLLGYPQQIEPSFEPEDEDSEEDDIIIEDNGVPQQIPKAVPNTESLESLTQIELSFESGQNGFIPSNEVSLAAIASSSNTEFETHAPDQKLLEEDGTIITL
UniProt Q99470: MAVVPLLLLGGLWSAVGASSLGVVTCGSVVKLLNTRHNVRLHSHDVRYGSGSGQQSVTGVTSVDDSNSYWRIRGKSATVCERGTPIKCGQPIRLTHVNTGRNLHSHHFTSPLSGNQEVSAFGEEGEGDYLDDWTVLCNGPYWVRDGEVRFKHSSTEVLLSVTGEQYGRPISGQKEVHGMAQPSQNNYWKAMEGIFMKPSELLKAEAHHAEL
UniProt Q9BZL1: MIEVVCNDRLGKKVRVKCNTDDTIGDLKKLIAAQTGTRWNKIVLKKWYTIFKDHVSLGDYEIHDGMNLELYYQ
UniProt Q9BXL5: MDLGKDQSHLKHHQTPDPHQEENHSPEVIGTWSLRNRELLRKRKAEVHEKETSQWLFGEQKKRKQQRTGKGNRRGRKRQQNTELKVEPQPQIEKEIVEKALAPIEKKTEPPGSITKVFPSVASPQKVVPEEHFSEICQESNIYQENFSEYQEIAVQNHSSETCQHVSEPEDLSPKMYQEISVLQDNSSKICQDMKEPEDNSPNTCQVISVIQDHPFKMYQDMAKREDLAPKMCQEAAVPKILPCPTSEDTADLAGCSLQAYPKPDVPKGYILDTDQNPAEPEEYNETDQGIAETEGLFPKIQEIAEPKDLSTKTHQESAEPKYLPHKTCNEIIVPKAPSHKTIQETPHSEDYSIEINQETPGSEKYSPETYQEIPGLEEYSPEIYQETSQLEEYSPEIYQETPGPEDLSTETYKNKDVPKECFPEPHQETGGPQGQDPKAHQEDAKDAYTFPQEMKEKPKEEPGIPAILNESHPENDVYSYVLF
UniProt Q9BT23: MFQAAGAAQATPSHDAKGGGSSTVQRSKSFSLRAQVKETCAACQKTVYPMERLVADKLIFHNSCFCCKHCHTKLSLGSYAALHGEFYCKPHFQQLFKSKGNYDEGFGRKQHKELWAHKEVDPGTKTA
UniProt Q99873, whole entry, looked up: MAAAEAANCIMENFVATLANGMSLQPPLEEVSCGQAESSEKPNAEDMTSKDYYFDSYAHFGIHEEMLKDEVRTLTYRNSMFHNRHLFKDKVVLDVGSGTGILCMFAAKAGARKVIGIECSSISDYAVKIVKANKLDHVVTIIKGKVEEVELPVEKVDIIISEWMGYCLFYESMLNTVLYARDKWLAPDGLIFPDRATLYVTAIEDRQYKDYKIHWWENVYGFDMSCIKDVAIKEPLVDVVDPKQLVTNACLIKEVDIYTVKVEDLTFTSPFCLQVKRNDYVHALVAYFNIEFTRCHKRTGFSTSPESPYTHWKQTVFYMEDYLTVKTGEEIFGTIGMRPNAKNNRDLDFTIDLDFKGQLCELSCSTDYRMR
UniProt Q9BQC3: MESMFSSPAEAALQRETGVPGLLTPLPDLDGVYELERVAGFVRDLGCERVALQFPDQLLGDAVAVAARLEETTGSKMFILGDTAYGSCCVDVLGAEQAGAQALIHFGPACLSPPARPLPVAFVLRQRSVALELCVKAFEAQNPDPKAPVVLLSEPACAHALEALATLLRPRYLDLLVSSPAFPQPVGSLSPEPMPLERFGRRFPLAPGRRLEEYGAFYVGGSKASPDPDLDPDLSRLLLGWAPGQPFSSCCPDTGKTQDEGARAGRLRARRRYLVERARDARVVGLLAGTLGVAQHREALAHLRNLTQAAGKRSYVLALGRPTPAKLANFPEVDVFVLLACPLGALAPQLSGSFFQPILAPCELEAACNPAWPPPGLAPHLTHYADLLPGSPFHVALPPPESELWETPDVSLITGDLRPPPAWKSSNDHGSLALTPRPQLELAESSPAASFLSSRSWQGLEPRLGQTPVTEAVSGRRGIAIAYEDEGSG
UniProt Q9BV81: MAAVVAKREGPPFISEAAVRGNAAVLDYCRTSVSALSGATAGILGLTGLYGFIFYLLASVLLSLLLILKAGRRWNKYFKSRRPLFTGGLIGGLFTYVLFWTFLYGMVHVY

Compound: Nc1ncnc2c1ncn2[C@@H]1O[C@H](COP(=O)(O)OP(=O)(O)OP(=O)(O)O)[C@@H](O)[C@H]1O [adenosine triphosphate]
Assay: NP40-soluble protein abundance relative to vehicle (solubility fold change) (ratio); higher = more soluble protein in presence of ATP
Method in brief: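 Across three independent experiments, values are fold changes against the detergent-processed vehicle for each replicate, based on vsn-normalised intensities. The samples were Jurkat crude lysate treated with eight concentrations (0.1 to 10 mM) for 10 min at room temperature and then 3 min at 37 °C. Lysate was solubilised with 0.8% NP40 and benzonase, ultracentrifuged, and the supernatant analysed by TMT-labelled LC-MS/MS.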

Target	NP40-soluble protein abundance (concentration: 1mM)	NP40-soluble protein abundance (concentration: 2mM)	NP40-soluble protein abundance (concentration: 4mM)	NP40-soluble protein abundance (concentration: 6mM)	NP40-soluble protein abundance (concentration: 8mM)	NP40-soluble protein abundance (concentration: 10mM)
UniProt Q9BZE1 and related entries	1.14 ± 0.049	1 ± 0.15	0.95 ± 0.072	0.844 ± 0.21	1.02 ± 0.21	0.963 ± 0.21
UniProt Q9BQC6	1.04 ± 0.044	0.906 ± 0.085	0.9318 ± 0.0087	0.98 ± 0.077	0.936 ± 0.028	0.853 ± 0.15
KIF2C (UniProt Q99661)	1.04 ± 0.025	1.03 ± 0.041	1.02 ± 0.041	1.05 ± 0.043	1.03 ± 0.036	1.02 ± 0.038
UniProt Q9BQG0 and related entries	0.958 ± 0.033	0.97 ± 0.05	0.938 ± 0.047	0.885 ± 0.027	0.904 ± 0.055	0.935 ± 0.051
RBM4B (UniProt Q9BQ04)	1.12 ± 0.14	1.06 ± 0.072	1.09 ± 0.088	1.02 ± 0.035	1 ± 0.035	1.07 ± 0.061
UniProt Q96T76 and related entries	0.944 ± 0.06	0.947 ± 0.1	0.962 ± 0.052	0.877 ± 0.06	0.932 ± 0.054	0.944 ± 0.057
UniProt Q9BVJ6 and related entries	1.1 ± 0.065	1.12 ± 0.025	1.17 ± 0.035	1.22 ± 0.082	1.22 ± 0.038	1.262 ± 0.0085
CARD11 (UniProt Q9BXL7)	1.01 ± 0.059	1 ± 0.052	1.01 ± 0.029	1.01 ± 0.06	0.944 ± 0.053	0.988 ± 0.027
UniProt Q9BRA0 and related entries	0.904 ± 0.066	0.925 ± 0.065	0.894 ± 0.052	0.896 ± 0.09	0.901 ± 0.097	0.892 ± 0.082
PCGF6 (UniProt Q9BYE7)	0.956 ± 0.11	0.989 ± 0.056	0.967 ± 0.12	1.02 ± 0.041	0.996 ± 0.07	0.983 ± 0.028
POLR3C (UniProt Q9BUI4)	1.01 ± 0.096	0.988 ± 0.028	0.972 ± 0.057	0.974 ± 0.043	1 ± 0.052	1.02 ± 0.051
UniProt Q9BSF4	0.892 ± 0.06	0.948 ± 0.041	0.967 ± 0.042	0.845 ± 0.063	0.907 ± 0.057	0.994 ± 0.03
PUS3 (UniProt Q9BZE2)	0.989 ± 0.033	1.02 ± 0.074	1.04 ± 0.055	0.991 ± 0.044	1.05 ± 0.042	1.01 ± 0.049
UniProt Q9BQP7	1.02 ± 0.013	0.99077 ± 0.00014	1.01 ± 0.011	1.02 ± 0.03	0.967 ± 0.01	0.96 ± 0.014
UniProt Q9BZQ6-2	1.02 ± 0.06	1.01 ± 0.016	0.955 ± 0.057	0.99 ± 0.035	0.991 ± 0.022	1 ± 0.08
UniProt Q99707 and related entries	0.966 ± 0.021	1.01 ± 0.053	0.996 ± 0.042	0.966 ± 0.049	1.01 ± 0.032	0.994 ± 0.048
PRPF18 (UniProt Q99633)	0.972 ± 0.026	0.94 ± 0.014	1 ± 0.024	1.01 ± 0.044	1.03 ± 0.014	1.01 ± 0.052
UniProt Q9BRT2 and related entries	0.957 ± 0.074	0.95 ± 0.091	0.964 ± 0.06	1 ± 0.044	1 ± 0.012	0.902 ± 0.11
UniProt Q9BZL4 and related entries	0.964 ± 0.043	0.957 ± 0.031	0.992 ± 0.041	0.972 ± 0.033	0.942 ± 0.036	0.961 ± 0.016
BACH2 (UniProt Q9BYV9)	1.05 ± 0.12	0.972 ± 0.029	0.957 ± 0.035	1.03 ± 0.083	0.982 ± 0.05	0.986 ± 0.069

Target	NP40-soluble protein abundance (concentration: 1mM)	NP40-soluble protein abundance (concentration: 2mM)	NP40-soluble protein abundance (concentration: 4mM)	NP40-soluble protein abundance (concentration: 6mM)	NP40-soluble protein abundance (concentration: 8mM)	NP40-soluble protein abundance (concentration: 10mM)
CPNE1 (UniProt Q99829)	0.978 ± 0.091	0.969 ± 0.068	0.93 ± 0.043	0.924 ± 0.11	0.91 ± 0.044	0.947 ± 0.065
MND1 (UniProt Q9BWT6)	0.948 ± 0.083	0.94 ± 0.041	0.947 ± 0.051	0.939 ± 0.043	0.921 ± 0.016	0.87 ± 0.091
UniProt Q99728 and related entries	1.06 ± 0.059	1.14 ± 0.076	1.17 ± 0.031	1.18 ± 0.026	1.16 ± 0.019	1.19 ± 0.036
OSBPL11 (UniProt Q9BXB4)	0.978 ± 0.013	0.9883 ± 0.0077	0.974 ± 0.035	0.9555 ± 0.0081	0.982 ± 0.029	0.978 ± 0.021
MRPS26 (UniProt Q9BYN8)	0.999 ± 0.1	0.875 ± 0.093	0.898 ± 0.16	0.848 ± 0.15	0.882 ± 0.11	0.778 ± 0.14
PSMB7 (UniProt Q99436)	0.947 ± 0.061	0.89 ± 0.015	0.837 ± 0.042	0.923 ± 0.099	0.888 ± 0.062	0.861 ± 0.061
UniProt Q99828 and related entries	1.04 ± 0.088	1 ± 0.028	1.03 ± 0.05	1.06 ± 0.081	0.992 ± 0.056	1 ± 0.043
AGPAT1 (UniProt Q99943)	0.966 ± 0.066	0.967 ± 0.032	0.964 ± 0.039	0.958 ± 0.06	0.972 ± 0.035	0.9596 ± 0.004
PARD6B (UniProt Q9BYG5)	1.02 ± 0.097	1.04 ± 0.052	1.03 ± 0.12	1.026 ± 0.0044	0.989 ± 0.039	1.01 ± 0.038
PHF20 (UniProt Q9BVI0)	1.14 ± 0.026	1.18 ± 0.049	1.31 ± 0.1	1.35 ± 0.13	1.34 ± 0.085	1.44 ± 0.16
SDF2 (UniProt Q99470)	1.02 ± 0.069	0.975 ± 0.013	1 ± 0.018	0.999 ± 0.036	0.977 ± 0.037	1.01 ± 0.068
UniProt Q9BYT3 and related entries	0.887 ± 0.16	0.889 ± 0.11	0.905 ± 0.14	0.897 ± 0.15	0.854 ± 0.085	0.938 ± 0.15
UniProt Q9BZL1	1.04 ± 0.061	1.11 ± 0.06	1.072 ± 0.0098	1.12 ± 0.096	1.1 ± 0.056	1.073 ± 0.0023
SF3B5 (UniProt Q9BWJ5)	1.07 ± 0.079	1.04 ± 0.1	1.07 ± 0.085	1.17 ± 0.22	1.1 ± 0.08	1.08 ± 0.14
UniProt Q9BVP2 and related entries	1.23 ± 0.076	1.27 ± 0.068	1.33 ± 0.071	1.4 ± 0.078	1.49 ± 0.082	1.55 ± 0.14
UniProt Q9BRR9-2|Q9BRR9-4|Q9BRR9-5|R4GN15	0.873 ± 0.02	0.863 ± 0.052	0.897 ± 0.069	0.838 ± 0.075	0.855 ± 0.059	0.859 ± 0.073
YTHDF1 (UniProt Q9BYJ9)	1.03 ± 0.054	1.05 ± 0.054	1.05 ± 0.035	1.05 ± 0.037	1.06 ± 0.086	1.06 ± 0.056
ARID3A (UniProt Q99856)	0.985 ± 0.044	0.974 ± 0.034	0.954 ± 0.069	0.977 ± 0.066	0.97 ± 0.014	0.97 ± 0.032
UniProt Q9BWS9 and related entries	1.03 ± 0.1	1.01 ± 0.074	1.02 ± 0.066	1 ± 0.13	1.12 ± 0.097	1.04 ± 0.035
HEMGN (UniProt Q9BXL5)	0.908 ± 0.076	0.911 ± 0.038	0.914 ± 0.015	0.953 ± 0.062	0.863 ± 0.034	0.889 ± 0.033

Quoted at random: four records from the list
Target	NP40-soluble protein abundance (concentration: 1mM)	NP40-soluble protein abundance (concentration: 2mM)	NP40-soluble protein abundance (concentration: 4mM)	NP40-soluble protein abundance (concentration: 6mM)	NP40-soluble protein abundance (concentration: 8mM)	NP40-soluble protein abundance (concentration: 10mM)
UniProt Q9BVJ6 and related entries	1.1 ± 0.065	1.12 ± 0.025	1.17 ± 0.035	1.22 ± 0.082	1.22 ± 0.038	1.262 ± 0.0085
UniProt Q9BQP7	1.02 ± 0.013	0.99077 ± 0.00014	1.01 ± 0.011	1.02 ± 0.03	0.967 ± 0.01	0.96 ± 0.014
UniProt Q9BZE1 and related entries	1.14 ± 0.049	1 ± 0.15	0.95 ± 0.072	0.844 ± 0.21	1.02 ± 0.21	0.963 ± 0.21
SF3B5 (UniProt Q9BWJ5)	1.07 ± 0.079	1.04 ± 0.1	1.07 ± 0.085	1.17 ± 0.22	1.1 ± 0.08	1.08 ± 0.14

More entries.

Target	NP40-soluble protein abundance (concentration: 1mM)	NP40-soluble protein abundance (concentration: 2mM)	NP40-soluble protein abundance (concentration: 4mM)	NP40-soluble protein abundance (concentration: 6mM)	NP40-soluble protein abundance (concentration: 8mM)	NP40-soluble protein abundance (concentration: 10mM)
LIMD2 (UniProt Q9BT23)	0.991 ± 0.074	1.01 ± 0.059	1.01 ± 0.038	1.05 ± 0.12	0.986 ± 0.079	0.942 ± 0.045
UniProt Q99873-3|Q99873-4	1.13 ± 0.25	1.07 ± 0.17	1.05 ± 0.16	0.945 ± 0.2	1.11 ± 0.11	1.02 ± 0.076
UniProt Q9BYD1 and related entries	1.11 ± 0.039	0.975 ± 0.035	0.974 ± 0.065	0.915 ± 0.2	0.926 ± 0.13	0.943 ± 0.14
VAT1 (UniProt Q99536)	1 ± 0.057	0.971 ± 0.033	0.933 ± 0.028	0.979 ± 0.05	0.935 ± 0.044	0.94 ± 0.051
UniProt Q9BUR4	1.1 ± 0.093	1.11 ± 0.068	1.12 ± 0.15	1.17 ± 0.1	1.21 ± 0.12	1.26 ± 0.18
GPA33 (UniProt Q99795)	0.967 ± 0.097	1.02 ± 0.091	0.976 ± 0.1	0.981 ± 0.064	0.941 ± 0.083	0.963 ± 0.11
BRIP1 (UniProt Q9BX63)	1.04 ± 0.057	1.03 ± 0.053	1.11 ± 0.1	1.07 ± 0.071	1.03 ± 0.092	1.05 ± 0.095
UniProt Q9BSC4 and related entries	1.12 ± 0.084	1.17 ± 0.1	1.2 ± 0.097	1.29 ± 0.096	1.28 ± 0.084	1.32 ± 0.093
UniProt Q9BSH4	0.975 ± 0.016	0.971 ± 0.02	0.981 ± 0.033	0.949 ± 0.029	0.931 ± 0.023	0.939 ± 0.012
UniProt Q99767-2	0.825 ± 0.13	0.906 ± 0.09	1.01 ± 0.082	0.978 ± 0.091	0.843 ± 0.096	0.902 ± 0.063
RIOK1 (UniProt Q9BRS2)	1.07 ± 0.1	1.13 ± 0.069	1.16 ± 0.099	1.2 ± 0.15	1.19 ± 0.12	1.26 ± 0.089
UniProt Q99613 and related entries	0.97 ± 0.067	0.988 ± 0.076	1.06 ± 0.09	1.16 ± 0.14	1.24 ± 0.085	1.34 ± 0.12
UniProt Q9BRK0-2|B4DE60 and related entries	0.891 ± 0.011	0.873 ± 0.061	0.919 ± 0.096	0.904 ± 0.059	0.801 ± 0.088	0.924 ± 0.072
UniProt Q9BXP5-2|Q9BXP5-3|Q9BXP5-4	1.06 ± 0.041	1.08 ± 0.037	1.14 ± 0.051	1.22 ± 0.048	1.22 ± 0.038	1.25 ± 0.033
DPH2 (UniProt Q9BQC3)	0.932 ± 0.086	1 ± 0.038	0.974 ± 0.037	0.932 ± 0.048	0.941 ± 0.024	0.923 ± 0.05
UniProt Q9C035 and related entries	0.968 ± 0.051	0.937 ± 0.043	0.957 ± 0.082	0.977 ± 0.077	0.926 ± 0.096	0.918 ± 0.059
UniProt Q9BT22 and related entries	0.984 ± 0.1	0.971 ± 0.056	0.96 ± 0.078	0.945 ± 0.11	0.993 ± 0.045	0.96 ± 0.087
UniProt Q9BV81	0.98 ± 0.036	1 ± 0.075	0.967 ± 0.08	0.981 ± 0.063	0.967 ± 0.015	0.98 ± 0.069
MAK16 (UniProt Q9BXY0)	1 ± 0.064	1.07 ± 0.09	1.06 ± 0.099	1.15 ± 0.13	1.07 ± 0.046	1.18 ± 0.099
DOK1 (UniProt Q99704)	0.99 ± 0.051	0.985 ± 0.043	1.08 ± 0.16	1.03 ± 0.13	1.02 ± 0.099	1 ± 0.089
